# Some of the results follow.
# B1: AntigenI/IIA3VP1 (Streptococcus mutans), C9E3B4 (protein)
# chain: AANEADYQAKLTAYQTELARVQKANADAKAAYEAAVAANNAANAALTAENTAIKKRNADAKADYEAKLAKYQADLAKYQKDLADYPVKLKAYEDEQASIKAALAELEKHKNEDGNLTEPSAQNLVYDLEPNANLSLTTDGKFLKASAVDDAFSKSTSKAKYDQKILQLDDLDITNLEQSNDVASSMELYGNFGDKAGWSTTVSNNSQVKWGSVLLERGQSATATYTNLQNSYYNGKKISKIVYKYTVDPKSKFQGQKVWLGIFTDPTLGVFASAYTGQVEKNTSIFIKNEFTFYDEDGKPINFDNALLSVASLNREHNSIEMAKDYSGKFVKISGSSIGEKNGMIYATDTLNFKQGEGGSRWTMYKNSQAGSGWDSSDAPNSWYGAGAIKMSGPNNYVTVGATSATNVMPVSDMPVVPGKDNTDGKKPNIWYSLNGKIRAVNVPKVTKEKPTPPVKPTAPTKPTYETEKPLKPAPVAPNYEKEPTPPTRLEHHHHHH
# Columns and labels:
# Test in all cases: glycan array binding signal (z-score within array); higher = stronger binding
# Details in all cases: glycan notation: IUPAC condensed, linker removed
# [1] = molecular target: GlcNAc(b1-4)GlcNAc(b1-4)GlcNAc(b1-4)GlcNAc(b1-4)GlcNAc(b1-4)GlcNAc
# Method in brief: (§1)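 Glycan array binding is given as a within-array Z-score, which can be read as non-binding when negative. The arrays, 3228 of them, came from the Consortium for Functional Glycomics database and were retained only where the protein sequence was available. Z-scores were averaged across arrays of the same protein sequence at different concentrations or buffers and across linkers.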
# [2] = molecular target: GlcNAc(b1-4)[GlcNAc(b1-6)]GalNAc
# Method in brief: as §1
# [3] = molecular target: GlcNAc(b1-6)Gal(b1-4)GlcNAc
# Method in brief: as §1
# [4] = molecular target: GlcNAc(b1-6)GalNAc
# Method in brief: as §1
# [5] = molecular target: GlcNAc6S(b1-3)Gal(b1-4)GlcNAc
# Method in brief: as §1
# [6] = molecular target: Kdn(a2-3)Gal(b1-3)GalNAc
# Method in brief: as §1
# [7] = molecular target: Kdn(a2-3)Gal(b1-3)GlcNAc
# Method in brief: as §1
# [8] = molecular target: Kdn(a2-3)Gal(b1-4)Glc
# Method in brief: as §1
# [9] = molecular target: Kdn(a2-3)Gal(b1-4)GlcNAc
# Method in brief: as §1
# [10] = molecular target: Kdn(a2-3)Gal(b1-4)[Fuc(a1-3)]GlcNAc
# Method in brief: as §1
# [11] = molecular target: Kdn(a2-6)Gal(b1-4)GlcNAc
# Method in brief: as §1
# [12] = molecular target: Man(a1-2)Man(a1-2)Man(a1-3)Man
# Method in brief: as §1
# [13] = molecular target: Man(a1-2)Man(a1-2)Man(a1-6)[Man(a1-3)]Man
# Method in brief: as §1
# [14] = molecular target: Man(a1-2)Man(a1-3)Man
# Method in brief: as §1
# [15] = molecular target: Man(a1-2)Man(a1-3)[Man(a1-2)Man(a1-6)]Man
# Method in brief: as §1
# [16] = molecular target: Man(a1-2)Man(a1-3)[Man(a1-2)Man(a1-6)]Man(a1-6)[Man(a1-2)Man(a1-2)Man(a1-3)]Man
# Method in brief: as §1
# [17] = molecular target: Man(a1-2)Man(a1-3)[Man(a1-2)Man(a1-6)]Man(a1-6)[Man(a1-2)Man(a1-2)Man(a1-3)]Man(b1-4)GlcNAc(b1-4)GlcNAc
# Method in brief: as §1
# [18] = molecular target: Man(a1-2)Man(a1-3)[Man(a1-6)]Man(a1-6)[Man(a1-2)Man(a1-3)]Man(b1-4)GlcNAc(b1-4)GlcNAc
# Method in brief: as §1
# [19] = molecular target: Man(a1-2)Man(a1-6)[Man(a1-3)]Man(a1-6)[Man(a1-2)Man(a1-2)Man(a1-3)]Man
# Method in brief: as §1
# [20] = molecular target: Man(a1-2)Man(a1-6)[Man(a1-3)]Man(a1-6)[Man(a1-2)Man(a1-2)Man(a1-3)]Man(b1-4)GlcNAc(b1-4)GlcNAc
# Method in brief: as §1
# [21] = molecular target: Man(a1-3)[Man(a1-6)]Man
# Method in brief: as §1
# [22] = molecular target: Man(a1-3)[Man(a1-6)]Man(a1-6)[Man(a1-2)Man(a1-3)]Man(b1-4)GlcNAc(b1-4)GlcNAc
# Method in brief: as §1
# [23] = molecular target: Man(a1-3)[Man(a1-6)]Man(a1-6)[Man(a1-3)]Man
# Method in brief: as §1
# [24] = molecular target: Man(a1-3)[Man(a1-6)]Man(a1-6)[Man(a1-3)]Man(b1-4)GlcNAc(b1-4)GlcNAc
# Method in brief: as §1
# [25] = molecular target: Man(a1-3)[Man(a1-6)]Man(b1-4)GlcNAc(b1-4)GlcNAc
# Method in brief: as §1
# [26] = molecular target: Man(a1-3)[Man(a1-6)]Man(b1-4)GlcNAc(b1-4)[Fuc(a1-6)]GlcNAc
# Method in brief: as §1
# [27] = molecular target: Man(a1-6)Man
# Method in brief: as §1
# [28] = molecular target: Man(b1-4)GlcNAc
# Method in brief: as §1
# [29] = molecular target: MurNAc(b1-4)GlcNAc
# Method in brief: as §1
# [30] = molecular target: Neu5Ac(a2-3)Gal
# Method in brief: as §1
# [31] = molecular target: Neu5Ac(a2-3)Gal(b1-3)GalNAc
# Method in brief: as §1
# [32] = molecular target: Neu5Ac(a2-3)Gal(b1-3)GalNAc(b1-3)Gal(a1-4)Gal(b1-4)Glc
# Method in brief: as §1
# [33] = molecular target: Neu5Ac(a2-3)Gal(b1-3)GalNAc(b1-4)[Neu5Ac(a2-3)]Gal(b1-4)Glc
# Method in brief: as §1
# [34] = molecular target: Neu5Ac(a2-3)Gal(b1-3)GalNAc(b1-4)[Neu5Ac(a2-8)Neu5Ac(a2-3)]Gal(b1-4)Glc
# Method in brief: as §1
# [35] = molecular target: Neu5Ac(a2-3)Gal(b1-3)GalNAc6S
# Method in brief: as §1
# [36] = molecular target: Neu5Ac(a2-3)Gal(b1-3)GlcNAc
# Method in brief: as §1
# [37] = molecular target: Neu5Ac(a2-3)Gal(b1-3)GlcNAc(b1-2)Man
# Method in brief: as §1
# [38] = molecular target: Neu5Ac(a2-3)Gal(b1-3)GlcNAc(b1-2)Man(a1-3)[GlcNAc(b1-4)][Neu5Ac(a2-3)Gal(b1-3)GlcNAc(b1-2)Man(a1-6)]Man(b1-4)GlcNAc(b1-4)GlcNAc
# Method in brief: as §1
# [39] = molecular target: Neu5Ac(a2-3)Gal(b1-3)GlcNAc(b1-2)Man(a1-3)[Neu5Ac(a2-3)Gal(b1-3)GlcNAc(b1-2)Man(a1-6)]Man(b1-4)GlcNAc(b1-4)GlcNAc
# Method in brief: as §1
# [40] = molecular target: Neu5Ac(a2-3)Gal(b1-3)GlcNAc(b1-3)Gal(b1-3)GlcNAc
# Method in brief: as §1
# [41] = molecular target: Neu5Ac(a2-3)Gal(b1-3)GlcNAc(b1-3)Gal(b1-4)GlcNAc
# Method in brief: as §1
# [42] = molecular target: Neu5Ac(a2-3)Gal(b1-3)GlcNAc(b1-3)GalNAc
# Method in brief: as §1
# [43] = molecular target: Neu5Ac(a2-3)Gal(b1-3)GlcNAc(b1-4)Gal(b1-4)Glc
# Method in brief: as §1
# [44] = molecular target: Neu5Ac(a2-3)Gal(b1-3)GlcNAc(b1-6)GalNAc
# Method in brief: as §1
# [45] = molecular target: Neu5Ac(a2-3)Gal(b1-3)GlcNAc6S
# Method in brief: as §1
binder,measurement,setting,value
B1,glycan array binding signal (z-score),[1],-0.58
same,glycan array binding signal (z-score),[2],-0.643
same,glycan array binding signal (z-score),[3],-0.001
same,glycan array binding signal (z-score),[4],-0.655
same,glycan array binding signal (z-score),[5],0.77
same,glycan array binding signal (z-score),[6],0.902
same,glycan array binding signal (z-score),[7],0.432
same,glycan array binding signal (z-score),[8],0.138
same,glycan array binding signal (z-score),[9],-0.618
same,glycan array binding signal (z-score),[10],1.13
same,glycan array binding signal (z-score),[11],-1.05
same,glycan array binding signal (z-score),[12],-1.16
same,glycan array binding signal (z-score),[13],1.22
same,glycan array binding signal (z-score),[14],0.52
same,glycan array binding signal (z-score),[15],-0.805
same,glycan array binding signal (z-score),[16],-1.51
same,glycan array binding signal (z-score),[17],-0.709
same,glycan array binding signal (z-score),[18],-0.991
same,glycan array binding signal (z-score),[19],-1.48
same,glycan array binding signal (z-score),[20],0.975
same,glycan array binding signal (z-score),[21],0.13
same,glycan array binding signal (z-score),[22],0.368
same,glycan array binding signal (z-score),[23],-0.42
same,glycan array binding signal (z-score),[24],-0.422
same,glycan array binding signal (z-score),[25],-0.411
same,glycan array binding signal (z-score),[26],-0.693
same,glycan array binding signal (z-score),[27],-0.277
same,glycan array binding signal (z-score),[28],-0.516
same,glycan array binding signal (z-score),[29],0.74
same,glycan array binding signal (z-score),[30],-0.347
same,glycan array binding signal (z-score),[31],-0.764
same,glycan array binding signal (z-score),[32],0.492
same,glycan array binding signal (z-score),[33],-0.369
same,glycan array binding signal (z-score),[34],0.855
same,glycan array binding signal (z-score),[35],-0.385
same,glycan array binding signal (z-score),[36],-0.143
same,glycan array binding signal (z-score),[37],-0.921
same,glycan array binding signal (z-score),[38],-0.193
same,glycan array binding signal (z-score),[39],0.303
same,glycan array binding signal (z-score),[40],-0.515
same,glycan array binding signal (z-score),[41],-1.16
same,glycan array binding signal (z-score),[42],-0.807
same,glycan array binding signal (z-score),[43],-0.89
same,glycan array binding signal (z-score),[44],0.016
same,glycan array binding signal (z-score),[45],-1.25

# Shown bar-delimited: part of the list above.
binder | measurement | setting | value
B1 | glycan array binding signal (z-score) | [2] | -0.643
same | glycan array binding signal (z-score) | [20] | 0.975
